From article doi:10.1101/2021.08.03.454925
Results are given in words; binding and its absence hold for the method and conditions named. Some binding calls cover weakened binding; strength is not graded here.

Molecular target: T1, AccD (acetyl-CoA carboxylase subunit D) (UniProt P0A9Q5)
T1 sequence: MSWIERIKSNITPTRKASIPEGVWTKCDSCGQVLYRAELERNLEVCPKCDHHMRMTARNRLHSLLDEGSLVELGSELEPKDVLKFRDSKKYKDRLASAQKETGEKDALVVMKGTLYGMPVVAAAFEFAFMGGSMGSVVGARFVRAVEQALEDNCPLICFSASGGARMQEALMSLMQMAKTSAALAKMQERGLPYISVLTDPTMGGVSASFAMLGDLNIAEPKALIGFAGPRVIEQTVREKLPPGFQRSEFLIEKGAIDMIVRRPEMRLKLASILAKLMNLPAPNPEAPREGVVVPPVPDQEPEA
Experiment: co-purification

B1: AccA (acetyl-CoA carboxylase subunit A) (protein, UniProt P0ABD5 1-319)
chain: MSLNFLDFEQPIAELEAKIDSLTAVSRQDEKLDINIDEEVHRLREKSVELTRKIFADLGAWQIAQLARHPQRPYTLDYVRLAFDEFDELAGDRAYADDKAIVGGIARLDGRPVMIIGHQKGRETKEKIRRNFGMPAPEGYRKALRLMQMAERFKMPIITFIDTPGAYPGVGAEERGQSEAIARNLREMSRLGVPVVCTVIGEGGSGGALAIGVGDKVNMLQYSTYSVISPEGCASILWKSADKAPLAAEAMGIIAPRLKELKLIDSIIPEPLGGAHRNPEAMAASLKAQLLADLADLDVLSTEDLKNRRYQRLMSYGYA
- binding: binds
